These are yes or no findings as the source states them, for the method shown. Binding seen in cells or lysates may run through a third protein. Some results given as binding are weak or reduced against the parent protein; the word gives no strength.
Tests used:
[1] = biological target: FGFR1, endogenous in CW-2 and AGS cells (human (endogenous in CW-2 and AGS)) (UniProt P11362); assay: co-IP; endogenous ERBB3 and FGFR1 in CW-2 and AGS cells; which protein was precipitated is not told
[2] = biological target: MYC-tagged FGFR1 (UniProt P11362); assay: co-IP; lysates of HEK293T cells co-transfected with FLAG-tagged ERBB3-E928G and MYC-tagged FGFR1, 3 days after transfection; Co-IP using anti-FLAG and anti-MYC antibodies

Chains of the proteins cited; added tags and fusions are not shown. Lines headed by an entry give the natural chain unless they say otherwise; changes in a name come on top. A line that says so, or that is headed by a name, gives the form on record, which may keep a tag or linker. Residues count along the entry.
UniProt P11362, residues 22-822: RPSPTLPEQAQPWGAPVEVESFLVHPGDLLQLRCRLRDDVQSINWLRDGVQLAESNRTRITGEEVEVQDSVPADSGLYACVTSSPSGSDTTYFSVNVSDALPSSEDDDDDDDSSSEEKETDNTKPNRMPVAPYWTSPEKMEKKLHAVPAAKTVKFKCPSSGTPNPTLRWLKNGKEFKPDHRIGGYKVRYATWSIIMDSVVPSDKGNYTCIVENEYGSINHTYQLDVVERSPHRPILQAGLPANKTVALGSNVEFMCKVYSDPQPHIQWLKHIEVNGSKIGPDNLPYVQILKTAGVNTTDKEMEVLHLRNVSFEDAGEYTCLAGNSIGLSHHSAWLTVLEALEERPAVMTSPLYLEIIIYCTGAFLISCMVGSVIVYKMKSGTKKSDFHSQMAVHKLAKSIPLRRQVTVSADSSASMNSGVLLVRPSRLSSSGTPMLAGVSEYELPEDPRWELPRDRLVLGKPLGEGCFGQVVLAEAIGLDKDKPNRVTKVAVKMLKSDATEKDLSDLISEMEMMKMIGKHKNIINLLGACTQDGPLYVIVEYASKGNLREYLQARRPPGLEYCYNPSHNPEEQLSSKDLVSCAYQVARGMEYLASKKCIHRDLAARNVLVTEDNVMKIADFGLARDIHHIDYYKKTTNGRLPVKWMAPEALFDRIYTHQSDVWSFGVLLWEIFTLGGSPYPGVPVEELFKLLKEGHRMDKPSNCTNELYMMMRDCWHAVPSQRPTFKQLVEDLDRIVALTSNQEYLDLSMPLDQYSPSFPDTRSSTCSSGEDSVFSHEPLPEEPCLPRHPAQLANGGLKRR
WT ERBB3, endogenous in AGS cells (P21860, residues 20-1342): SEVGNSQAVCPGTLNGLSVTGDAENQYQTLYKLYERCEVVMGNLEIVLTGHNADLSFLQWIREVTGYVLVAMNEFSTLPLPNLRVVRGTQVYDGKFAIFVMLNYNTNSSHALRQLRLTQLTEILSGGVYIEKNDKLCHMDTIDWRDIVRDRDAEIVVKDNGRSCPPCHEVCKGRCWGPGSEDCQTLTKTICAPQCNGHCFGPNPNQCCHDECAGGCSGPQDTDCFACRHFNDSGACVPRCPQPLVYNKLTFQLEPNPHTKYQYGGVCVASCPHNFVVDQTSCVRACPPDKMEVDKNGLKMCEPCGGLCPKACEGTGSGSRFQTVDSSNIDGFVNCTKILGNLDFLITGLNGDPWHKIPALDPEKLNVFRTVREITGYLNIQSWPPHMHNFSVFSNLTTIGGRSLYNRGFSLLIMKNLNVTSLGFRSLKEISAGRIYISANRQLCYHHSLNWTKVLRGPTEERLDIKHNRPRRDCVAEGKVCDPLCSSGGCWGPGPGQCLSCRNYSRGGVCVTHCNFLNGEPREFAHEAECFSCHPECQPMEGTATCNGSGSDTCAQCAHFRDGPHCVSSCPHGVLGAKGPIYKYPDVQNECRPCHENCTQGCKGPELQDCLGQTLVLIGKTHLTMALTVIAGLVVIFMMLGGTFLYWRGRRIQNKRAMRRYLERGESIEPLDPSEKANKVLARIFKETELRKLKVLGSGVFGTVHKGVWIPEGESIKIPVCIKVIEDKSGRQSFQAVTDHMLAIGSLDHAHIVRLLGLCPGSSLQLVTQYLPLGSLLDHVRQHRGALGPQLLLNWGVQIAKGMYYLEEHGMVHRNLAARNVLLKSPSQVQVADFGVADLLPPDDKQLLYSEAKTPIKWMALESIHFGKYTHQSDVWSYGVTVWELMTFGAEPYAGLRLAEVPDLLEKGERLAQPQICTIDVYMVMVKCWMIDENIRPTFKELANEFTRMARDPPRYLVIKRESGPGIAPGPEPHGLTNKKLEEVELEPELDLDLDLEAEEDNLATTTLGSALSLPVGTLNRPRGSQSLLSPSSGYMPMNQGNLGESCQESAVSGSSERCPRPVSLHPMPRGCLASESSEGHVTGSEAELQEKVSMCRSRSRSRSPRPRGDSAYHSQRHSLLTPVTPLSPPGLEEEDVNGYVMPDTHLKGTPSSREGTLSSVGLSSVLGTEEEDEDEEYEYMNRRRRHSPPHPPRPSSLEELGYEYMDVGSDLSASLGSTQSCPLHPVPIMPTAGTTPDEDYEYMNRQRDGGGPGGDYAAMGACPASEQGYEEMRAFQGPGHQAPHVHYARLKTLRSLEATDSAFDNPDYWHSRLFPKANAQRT
FLAG-tagged ERBB3-E928G (P21860, form named): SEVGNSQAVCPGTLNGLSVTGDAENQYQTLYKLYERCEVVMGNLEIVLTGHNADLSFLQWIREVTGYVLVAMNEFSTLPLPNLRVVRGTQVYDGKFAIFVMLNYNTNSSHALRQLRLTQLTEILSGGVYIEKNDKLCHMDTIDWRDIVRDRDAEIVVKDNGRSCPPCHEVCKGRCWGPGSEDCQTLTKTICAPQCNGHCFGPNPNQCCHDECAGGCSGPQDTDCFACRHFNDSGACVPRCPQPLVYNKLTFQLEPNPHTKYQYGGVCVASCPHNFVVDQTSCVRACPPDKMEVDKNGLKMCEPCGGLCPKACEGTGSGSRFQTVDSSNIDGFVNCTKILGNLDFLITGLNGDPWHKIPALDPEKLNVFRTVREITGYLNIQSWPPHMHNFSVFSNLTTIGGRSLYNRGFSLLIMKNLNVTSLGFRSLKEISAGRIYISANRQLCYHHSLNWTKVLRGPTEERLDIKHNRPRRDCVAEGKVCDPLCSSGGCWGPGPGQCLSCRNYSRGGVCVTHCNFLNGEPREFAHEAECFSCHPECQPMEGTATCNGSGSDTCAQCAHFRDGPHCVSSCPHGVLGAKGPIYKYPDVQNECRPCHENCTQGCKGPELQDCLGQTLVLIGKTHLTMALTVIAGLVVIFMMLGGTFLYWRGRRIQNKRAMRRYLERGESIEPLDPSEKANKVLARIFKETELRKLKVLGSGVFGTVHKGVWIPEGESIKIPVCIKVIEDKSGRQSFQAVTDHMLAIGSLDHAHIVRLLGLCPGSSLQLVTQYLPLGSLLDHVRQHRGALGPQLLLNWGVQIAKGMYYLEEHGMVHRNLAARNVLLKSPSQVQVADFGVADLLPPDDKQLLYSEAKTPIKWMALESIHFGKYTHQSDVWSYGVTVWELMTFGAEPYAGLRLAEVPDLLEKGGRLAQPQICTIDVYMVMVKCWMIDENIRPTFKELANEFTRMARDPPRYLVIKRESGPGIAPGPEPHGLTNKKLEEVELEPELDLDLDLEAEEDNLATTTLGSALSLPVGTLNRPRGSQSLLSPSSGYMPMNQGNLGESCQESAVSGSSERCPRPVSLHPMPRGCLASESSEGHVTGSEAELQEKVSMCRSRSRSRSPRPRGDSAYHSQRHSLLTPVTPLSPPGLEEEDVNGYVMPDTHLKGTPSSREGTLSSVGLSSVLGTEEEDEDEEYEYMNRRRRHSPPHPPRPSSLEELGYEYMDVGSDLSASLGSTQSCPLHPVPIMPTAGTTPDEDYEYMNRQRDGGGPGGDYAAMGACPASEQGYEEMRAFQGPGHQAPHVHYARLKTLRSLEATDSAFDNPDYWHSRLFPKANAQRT

binding [1] | binding [2] | Substance
binds |  | E928G mutant ERBB3, endogenous in CW-2 cells (from UniProt P21860 20-1342) (receptor)
 | binds | FLAG-tagged ERBB3-E928G (from UniProt P21860 20-1342) (receptor)
no binding |  | WT ERBB3, endogenous in AGS cells (from UniProt P21860 20-1342) (receptor)

From PMC7719122
